## Library screening results

Source: ChEMBL document CHEMBL3988442, “University of Dundee, Small-Polar-MMV Screening Library” (2021).

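Viability assay of Plasmodium falciparum sporozoites; the read-out is not stated. The concentration is filed as 10 mM, unlikely as a test dose, so the dose is not known. Higher reads as lower viability (inferred: compounds with an IC50 in retests scored well above the rest). Strong results were mostly tested again. Of about 34,000 compounds tested this way, about 280 (0.84%) reached 50% or more in at least one test.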

Each number is a percent effect as filed.
How 0% and 100% were set is not recorded. Most values in the screen are low, and negative values occur.
Compounds were drawn at random from those tested, without regard to their results.
Two or more numbers in one place are separate tests of the same structure; such repeats can differ widely.

Compound | effect
CN(C)C(=O)N1CCC2(CC1)CN(CC1CC1)CC21CCNC1=O.O=C(O)C(F)(F)F (configuration not stated) | 0.8554
COc1cccc2c1OCC(CNC(=O)CSc1nc(N)n[nH]1)C2 (configuration not stated) | -14.53
NC(=O)CN1CCCN(C(=O)Cc2ccc(Br)cc2)CC1 | 11.24
Cc1nc(C2CCCN2C(=O)c2cnns2)no1 (configuration not stated) | -24.24 & 4.122 & -30.77
COCC1CN(C(=O)Nc2ccc(Cl)cc2Cl)CCO1 (configuration not stated) | 8.229 & -38.12 & -36.93
Cc1nc(CCNC(=O)N2CCC(Cc3cnn(C)c3)C2)cs1 (configuration not stated) | -14.77
[H][C@@]12CCN(Cc3scnc3C)C[C@]1(c1nnc(C)o1)CCO2 | 1.688
[H][C@@]12OCCN(C(=O)c3cccc(C)n3)[C@@]1([H])CC[C@H]2OCCN(C)C | 2.193
CN(C)C(=O)C1CN(Cc2nccs2)CCN(S(C)(=O)=O)C1 (configuration not stated) | -6.215
Cc1cc(C2CCCN(CCS(=O)(=O)c3ccccc3)C2)n[nH]1 (configuration not stated) | 9.632
Cc1cc(C)n(C2CN(CC(=O)NC3CCOCC3)C2)n1 | -12.24 & 0.9547 & -5.629
NC(=O)C1CCN(C(=O)NCCOc2ccc3c(c2)CCC3)CC1 | -10.65
Cc1cc(C)c(CNC(=O)N(C)Cc2cccc(F)c2)c(=O)[nH]1 | 3.321
COCCC(=O)N1CCC(C(=O)c2cc(C)cnc2N)CC1 | 8.33
COc1ccc2cc(C(=O)N3CCCC(n4ccnc4C)C3)[nH]c2c1 (configuration not stated) | -4.765
Cc1cc(NC(=O)NCC(C)N2CCOCC2)n(C)n1 (configuration not stated) | 8.511 & -8.758 & 7.219
[H][C@@]12C[C@H](C)O[C@]1([H])CCN(S(=O)(=O)c1ccc(F)cc1)C2 | 9.194
CNc1cc(-c2cc(OC)c(OC)c(OC)c2)ncn1 | 1.27
Cc1cccc(OCC(=O)N(C)C2CCN(CC3CCOC3)CC2)c1 (configuration not stated) | -5.876
Cc1csc(CNC(=O)N2CCN(Cc3cc(C)on3)CC2)n1 | 3.68
Cn1cc(C(=O)NCC2CCN(C(=O)NC3CC3)CC2)cn1 | 12.74
CCn1ncc(C(=O)NCc2ccc(C)c(OC)c2)c1C(F)(F)F | -11.9
COCCN(CCOC)S(=O)(=O)N(C)Cc1ccncc1 | 4.338
CC(C)c1ccc(-c2nonc2N)cc1 | -11.77
Cn1c(CNCC2CCCN2c2cccnn2)nc2ccccc21 (configuration not stated) | 13.42
CNC(=O)CCc1cc(C)nc(C2CCN(CC(=O)N(C)C)CC2)c1 | 0.5827
[H][C@]12CCN(C(=O)NC(C)C)C[C@@]1([H])OCCN(S(C)(=O)=O)C2 | 9.632
CNc1nccnc1C1CCN(C(C)C)CC1 | 4.776
O=C(O)C(F)(F)F.O=C1COC2(CCN(c3ncccn3)CC2)CN1Cc1ccccn1 | -9.282
Cc1nn(C)c(C)c1CC(=O)N1CCC(Nc2cccnn2)CC1 | -6.101
CC(=O)N(C)CC(=O)Nc1cccc(N2CCN(CC3CC3)CC2)c1 | -11.07
Cc1cn2c(=O)c(-c3ccnc(N[C@@H]4CCOC4)n3)cnc2s1 | -2.117
Cc1noc(CNC2CCCN(Cc3noc(C4CC4)n3)C2)n1 (configuration not stated) | 14.44
CCN(CC)C(=O)Cn1ccc2cc(NC(=O)C3CCCO3)ccc21 (configuration not stated) | -0.4946
c1csc(-c2noc(CN3CCCC3Cn3cccn3)n2)c1 (configuration not stated) | -21.92 & -8.385 & -5.28
Oc1ccc(C2Nc3ccccc3C3=NCCCN32)cc1 (configuration not stated) | 4.955
CN(Cc1ccc(F)cc1)[C@@H]1CN(S(=O)(=O)N(C)C)C[C@H]1O | -3.755
CCOC(=O)CN1CCC(C(=O)c2cc(F)ccc2F)CC1 | 8.739
COCCC(=O)N1C[C@@H](O)[C@H](N2CCN(c3ccccc3)CC2)C1 | 6.396
CC(C)CCN1CCc2cc(C(=O)N(C)C)c(NCC3CC3)nc2CC1.O=C(O)C(F)(F)F.O=C(O)C(F)(F)F | -3.596
c1ccc2nc(N3CCCC3)c(NCc3nnc4n3CCC4)nc2c1 | 4.379
Cc1ccsc1C(=O)N1CCC2(CC1)C(=O)N(C)CCN2CC1CC1.O=C(O)C(F)(F)F | -2.025
Cc1cnn(CC2CCCCN2C(=O)c2ccc(NC3CC3)nc2)c1 (configuration not stated) | -5.894
O=C(O)C(F)(F)F.[H][C@]12C[C@@H](Cn3cncn3)N(C(C)C)[C@@]1([H])CCN(Cc1ccsc1)C2 | 3.833
Cc1cnn(C2CCCN(C(=O)c3cc(C)sc3C)C2)c1 (configuration not stated) | -1.015
COCC1CN(Cc2ccc(C)s2)Cc2nnn(C)c21.O=C(O)C(F)(F)F (configuration not stated) | 0.9649
O=C1CCC2(CCN(S(=O)(=O)c3ccccc3)CC2)N1CC1CC1 | 0.1711
O=C(CCNc1ccc(Cl)cn1)NCc1ccncc1 | -8.99
[H][C@]12CCN(C(=O)NC(C)C)CC[C@@]1([H])S(=O)(=O)N(Cc1cccc(Cl)c1)C2 | 17.64
c1cnn(CC2CN(CCc3ccncc3)CCO2)c1 (configuration not stated) | 4.162
COc1c(C2CCCN2CC(=O)Nc2cccnc2)c(C)nn1C (configuration not stated) | 9.507
c1cnc(N2CCCC(Cc3nccs3)C2)nc1 (configuration not stated) | 2.117
CN(CC(=O)N1CCCC1Cn1cccn1)Cc1ccccc1 (configuration not stated) | 11.67
CC(C)c1nc(CN2CCC(CO)CC2)cs1 | -4.905
Cc1cc(CN(C)C(=O)C2CCS(=O)(=O)C2)no1 (configuration not stated) | -12.25
CC(C)CCN(C)Cc1nc2c(cnn2C)c(=O)[nH]1 | 1.791
O=C(O)C(F)(F)F.[H][C@@]12CN(C(=O)c3cnoc3C)C[C@]1([H])C(=O)N(Cc1cccc(C)n1)C2 | 26.53
O=C(C1CC1)N1CCC(c2nc(O)c3c(n2)CN(C2CCCC2)CC3)C1 (configuration not stated) | 2.682
Cc1cnc(CN2CCCC(c3cc(C(N)=O)[nH]n3)C2)o1 (configuration not stated) | 18.72
Cc1ccccc1CN1CCC2(CC1)CN(S(=O)(=O)c1ccccc1)C2.O=C(O)C(F)(F)F | 2.737
O=C(O)COc1ccccc1CN1CCCC1c1ccncn1 (configuration not stated) | 1.752
Cc1cc(C)n(CC2CCCN2CC(=O)N(C)CCC#N)n1 (configuration not stated) | 0.5795
O=C1OCCN1CCOc1nc(-c2ccccc2Cl)no1 | -0.8264
CC(C)c1nc(C2CCCN2CCCc2nc3ccccc3o2)no1 (configuration not stated) | -5.12
CC1CN(CC(=O)N2CCOCC2)CCN1Cc1nccn1C (configuration not stated) | -3.485
Cc1cc(C(=O)N2CCCC2Cn2nc(C)cc2C)on1 (configuration not stated) | 0.48
Cc1cn2c(n1)CCC(NC(=O)c1cc(C3CC3)[nH]n1)C2 (configuration not stated) | 2.366
COCCNC(=O)CSc1nnc(OC(C)C)s1 | -27.19
Cc1cn2c(n1)C(CNCC1=Cc3cc(Cl)ccc3OC1)CCC2 (configuration not stated) | 86.97 & 100 & 87.02
Cn1nc(C#N)c2c1CN(C(=O)c1c[nH]cn1)CCC2 | 3.492
Cc1cnn(CC2CCCN2C(=O)c2cc(C)nc3[nH]nc(C)c23)c1 (configuration not stated) | -4.659
CCCc1noc(CNc2ccc(C(=O)N3CCCC3)cc2C)n1 | 3.383
COCCN1C(=O)CCC12CCN(C(=O)NC(C)C)CC2 | 3.921

Once more, the final 6:

COCCNC(=O)CSc1nnc(OC(C)C)s1 gave -27.19%.
Cc1cn2c(n1)C(CNCC1=Cc3cc(Cl)ccc3OC1)CCC2 (configuration not stated) gave 86.97% & 100% & 87.02%.
Cn1nc(C#N)c2c1CN(C(=O)c1c[nH]cn1)CCC2 gave 3.492%.
Cc1cnn(CC2CCCN2C(=O)c2cc(C)nc3[nH]nc(C)c23)c1 (configuration not stated) gave -4.659%.
CCCc1noc(CNc2ccc(C(=O)N3CCCC3)cc2C)n1 gave 3.383%.
COCCN1C(=O)CCC12CCN(C(=O)NC(C)C)CC2 gave 3.921%.